Experimental data from patent publication US20040229205A1, “Compositions for the storage of platelets” (priority 2003, published 2004).

System: platelet concentrates
Experiment: pH and lactate of stored platelet concentrates

Row | Compound | pH of platelet concentrate (15 mM D-Ribose, by four days of storage) | pH of platelet concentrate (about 150 nM D-Ribose) | pH change versus controls (1.5 mM down to 150 pM, analyzed every 24 hours)
1 | O=C[C@H](O)[C@H](O)[C@H](O)CO [D-Ribose] | 6.0 | pH remains constant | 
2 | O=C(CO)[C@H](O)[C@H](O)COP(=O)(O)O [Ribulose-5-phosphate] |  |  | No difference from controls
